The values below are quoted from earlier work in patent US20110312992A1, “Inhibitors of C-Kit and Uses Thereof” (priority 2006, published 2011).

This series relates to c-Kit D816 activation loop mutations. The settings on record: c-Kit D816 activation loop mutations of AML, systemic mastocytosis, seminoma; cited from earlier work.

Counter-ions that a name gives are not always drawn.

Broadly, the IC50 is the point on the concentration scale where inhibition reaches its midpoint. As to `Cc1ccc(NC(=O)c2ccc(CN3CCN(C)CC3)cc2)cc1Nc1nccc(-c2cccnc2)n1` [imatinib mesylate, reference compound], the IC50 is 5 to 10 µM.
